Test results from publication PMC10541201.
No constants are given. Whether binding was seen depends on the method and setting. In cells and extracts the contact can be indirect. Some entries that bind do so weakly or less than the wild type. Sequences can lack the tags named with a protein.

By UniProt entry, the sequences of proteins in these tests, tags left out.
UniProt Q86TM6: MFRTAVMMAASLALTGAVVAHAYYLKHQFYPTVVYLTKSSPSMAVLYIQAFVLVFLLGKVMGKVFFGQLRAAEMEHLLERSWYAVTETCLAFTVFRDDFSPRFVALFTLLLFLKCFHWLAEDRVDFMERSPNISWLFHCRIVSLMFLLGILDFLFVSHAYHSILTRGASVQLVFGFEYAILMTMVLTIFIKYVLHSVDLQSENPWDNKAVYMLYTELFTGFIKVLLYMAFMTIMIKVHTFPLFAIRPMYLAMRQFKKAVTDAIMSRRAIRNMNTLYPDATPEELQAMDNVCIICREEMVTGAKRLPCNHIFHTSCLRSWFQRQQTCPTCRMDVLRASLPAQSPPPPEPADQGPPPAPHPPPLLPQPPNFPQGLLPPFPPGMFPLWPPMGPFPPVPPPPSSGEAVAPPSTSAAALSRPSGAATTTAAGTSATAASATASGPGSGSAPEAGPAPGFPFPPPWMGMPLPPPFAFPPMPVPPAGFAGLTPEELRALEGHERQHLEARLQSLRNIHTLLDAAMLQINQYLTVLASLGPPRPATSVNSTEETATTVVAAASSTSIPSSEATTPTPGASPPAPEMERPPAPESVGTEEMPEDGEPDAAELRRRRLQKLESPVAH

Molecular target: T1, cystinosin(7Δ)-GFP (human) (UniProt O60931)
T1 sequence: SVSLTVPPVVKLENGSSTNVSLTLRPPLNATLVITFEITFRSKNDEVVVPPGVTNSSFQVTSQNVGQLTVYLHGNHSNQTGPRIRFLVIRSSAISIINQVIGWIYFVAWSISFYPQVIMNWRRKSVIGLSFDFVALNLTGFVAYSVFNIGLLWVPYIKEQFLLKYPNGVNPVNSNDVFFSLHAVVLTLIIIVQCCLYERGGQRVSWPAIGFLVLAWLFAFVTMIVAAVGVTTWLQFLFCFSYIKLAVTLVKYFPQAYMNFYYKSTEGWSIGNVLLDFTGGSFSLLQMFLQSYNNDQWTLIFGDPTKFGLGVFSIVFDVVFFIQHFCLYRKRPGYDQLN
Assay: co-IP; cystinosin-GFP (7Δ or WT) immunoprecipitated from cells, precipitate blotted for HRD1; HRD1 level quantified relative to 7Δ (100%); 3 independent replicates; protocol of this IP not described

binding: binds
Substance: HRD1 (from UniProt Q86TM6 1-617) (enzyme)
